The values below come from publication PMC8628943.

No constants are given. Whether binding was seen depends on the method and setting. Some entries that bind do so weakly or less than the wild type.

This test has as its target T1, human fibrinogen gamma subunit (human), P02679.
T1 chain: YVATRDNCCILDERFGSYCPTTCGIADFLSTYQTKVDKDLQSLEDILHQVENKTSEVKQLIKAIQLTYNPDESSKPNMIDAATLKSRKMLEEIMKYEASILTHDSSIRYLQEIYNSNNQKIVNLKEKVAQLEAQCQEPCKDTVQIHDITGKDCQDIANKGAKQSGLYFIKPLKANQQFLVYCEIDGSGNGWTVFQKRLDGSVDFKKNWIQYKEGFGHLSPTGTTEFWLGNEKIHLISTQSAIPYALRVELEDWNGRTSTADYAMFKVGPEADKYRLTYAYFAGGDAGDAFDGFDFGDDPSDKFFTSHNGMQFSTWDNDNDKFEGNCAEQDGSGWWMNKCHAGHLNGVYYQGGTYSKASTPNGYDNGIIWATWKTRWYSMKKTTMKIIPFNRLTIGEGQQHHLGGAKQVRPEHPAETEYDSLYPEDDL
The test is described as follows: cross-linking; enzymatic cross-linking: human fibrinogen 4 mg/mL with human Factor XIIIa 100 µg/mL in 0.05 M Tris-HCl, 10 mM CaCl2, pH 7.6, 37 °C, up to 110 min; reducing SDS-PAGE; dimer band digested in gel, LC-MS/MS (CID 30), MassMatrix search; both purified. Particulars: remark: other sources report otherwise.

B1: human fibrinogen gamma subunit, P02679 27-453 (protein)
chain: YVATRDNCCILDERFGSYCPTTCGIADFLSTYQTKVDKDLQSLEDILHQVENKTSEVKQLIKAIQLTYNPDESSKPNMIDAATLKSRKMLEEIMKYEASILTHDSSIRYLQEIYNSNNQKIVNLKEKVAQLEAQCQEPCKDTVQIHDITGKDCQDIANKGAKQSGLYFIKPLKANQQFLVYCEIDGSGNGWTVFQKRLDGSVDFKKNWIQYKEGFGHLSPTGTTEFWLGNEKIHLISTQSAIPYALRVELEDWNGRTSTADYAMFKVGPEADKYRLTYAYFAGGDAGDAFDGFDFGDDPSDKFFTSHNGMQFSTWDNDNDKFEGNCAEQDGSGWWMNKCHAGHLNGVYYQGGTYSKASTPNGYDNGIIWATWKTRWYSMKKTTMKIIPFNRLTIGEGQQHHLGGAKQVRPEHPAETEYDSLYPEDDL
On to B1, for which the binding entry was “binds”.
